This is an account of results in the supplement of paper PMC8256030.

Assay [1] deals with SARS-CoV-2 -1 PRF reporter mCherry-FSE-GFP(-1). Nature of the assay: mCherry (red) intensity as percent of control; higher = higher upstream reporter expression. As to conditions: 10 µM; 24 h; HEK293T.
For assay [2] the test system is unchanged. Nature of the assay: percent effect, decrease of GFP/mCherry ratio (-1 PRF reporter) relative to controls; higher = stronger frameshift inhibition. As to conditions: 10 µM; 24 h; HEK293T.

Several values for one entry are separate records, joined by “and”; a condition that tells them apart may be missing. Equal entries are not always repeated. The list shows a part of the results. Single values are uncertain here, since repeats match poorly.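 HEK293T cells were given each compound shortly before transfection with a reporter in which red mCherry is followed by the SARS-CoV-2 frameshift element and then GFP in the −1 frame, so GFP appears only after frameshifting.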

Regarding `CN(C)CCC=C1c2ccccc2COc2ccccc21`, in assay [1], the mCherry was determined as 109%. Further, the percent effect in assay [2] is -3.99%.

In assay [1], `O=C(C(Cl)Cl)N(CCO)Cc1ccc(Oc2ccc([N+](=O)[O-])cc2)cc1` [clefamide] yielded a mCherry of 32.4%. In assay [2], the percent effect was -14.6%.

The compound `N#CC[C@H](C1CCCC1)n1cc(-c2ncnc3[nH]ccc23)cn1` [Ruxolitinib] came in with a mCherry in assay [1] of 92.3%. Further, in assay [2], the percent effect is -5.5%.

In the case of `Nc1c(Br)cc(Br)cc1CN[C@H]1CC[C@H](O)CC1` [ambroxol], the mCherry in assay [1] is 95% and 89.7%. Besides, the percent effect in assay [2] was -0.621% and 3.83%.

`c1ccc(CC2=NCCN2)cc1` [tolazoline]: the mCherry in assay [1] amounted to 117%. Also, the percent effect in assay [2] was -7.25%.

Turning to `O=NN(CCCl)C(=O)NCCCl` [carmustine], in assay [1], the mCherry was 117%. Further, the percent effect in assay [2] was -0.349%.

Compound `CC(=O)O[C@]1(C(C)=O)CC[C@H]2[C@@H]3C=C(Cl)C4=CC(=O)[C@@H]5C[C@@H]5[C@]4(C)[C@H]3CC[C@@]21C` [Cyproterone Acetate] displayed a mCherry in assay [1] of 81.8%. Besides, in assay [2], the percent effect was -4.4%.

In turn, `CC(C)[C@H](NC(=O)[C@H](CC(=O)O)NC(=O)[C@H](CCCCN)NC(=O)[C@@H](N)CCCN=C(N)N)C(=O)N[C@@H](Cc1ccc(O)cc1)C(=O)O` [thymopentin] returned a mCherry in assay [1] of 70.6%. Moreover, the percent effect in assay [2] is -9.39%.

`CN(C)CC/C=C1/c2ccccc2COc2ccc(CC(=O)O)cc21` [olopatadine] came in with a mCherry in assay [1] of 131%. For the same compound, the percent effect in assay [2] was -12.6%.

`Nc1nc(=O)c2ncn([C@@H]3C[C@H](CO)[C@H]3CO)c2[nH]1` [lobucavir] registered a mCherry in assay [1] of 59.2%. The percent effect in assay [2] is 3.21%.

Take `O=C(NCCO[N+](=O)[O-])c1cccnc1` [nicorandil]: in assay [1], the mCherry was found to be 88.1%. Moreover, the percent effect in assay [2] is -2.36%.

For `C[C@@H]1C[C@H]2[C@@H]3C[C@H](F)C4=CC(=O)C=C[C@]4(C)[C@@]3(Cl)[C@@H](O)C[C@]2(C)[C@H]1C(=O)CO` [clocortolone], the mCherry in assay [1] amounted to 46.7%. Also, the percent effect in assay [2] amounted to 10.8%.
